{"source": "paper PMC9928087", "about": "“Plasmids manipulate bacterial behaviour through translational regulatory crosstalk”", "key": {"[1]": {"tested_on": "T1, RsmQ (Pseudomonas fluorescens SBW25 plasmid pQBR103)", "T1 sequence (looked up, limits assumed)": "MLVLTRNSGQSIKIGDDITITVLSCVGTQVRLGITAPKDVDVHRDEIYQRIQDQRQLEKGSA", "experiment": "SPR", "conditions": "SPR (ReDCaT SA chip, Biacore 8K): 10 mM HEPES, 150 mM NaCl, 3 mM EDTA, 0.05% Tween 20, pH 7.4, 20 C, RsmQ 100 and 1000 nM (Fig 4: 100-1000 nM), recombinant protein, protein details: C-terminal TEV site + 6xHis, folded or branched DNA"}, "[2]": {"biological_target": "T2, RsmE (Pseudomonas fluorescens SBW25) (UniProt A0ACA7PAD1)", "T2 sequence (looked up, limits assumed)": "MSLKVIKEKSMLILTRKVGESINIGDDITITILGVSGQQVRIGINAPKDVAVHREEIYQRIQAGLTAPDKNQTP", "experiment": "SPR (ReDCaT)", "conditions": "100 nM protein, HBS-EP+ (10 mM HEPES, 150 mM NaCl, 3 mM EDTA, 0.05% v/v Tween 20, pH 7.4), 20 C, Biacore 8K, ReDCaT SA chip, high values mean tight binding, recombinant protein, protein details: His tag (pET28a NdeI/XhoI), folded or branched DNA, counted as no binding"}, "[3]": {"tested_on": "T1, RsmQ (Pseudomonas fluorescens SBW25 plasmid pQBR103)", "experiment": "SPR (ReDCaT)", "conditions": "HBS-EP+ (10 mM HEPES, 150 mM NaCl, 3 mM EDTA, 0.05% v/v Tween 20, pH 7.4), 20 C, Biacore 8K, ReDCaT SA chip, high values mean tight binding, protein details: C-terminal TEV site + 6xHis, counted as no binding"}, "[4]": {"biological_target": "T3, RsmE (Pseudomonas fluorescens SBW25) (UniProt A0ACG8AC87)", "T3 sequence (looked up, limits assumed)": "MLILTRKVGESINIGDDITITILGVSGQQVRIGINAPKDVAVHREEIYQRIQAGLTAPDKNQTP", "experiment": "SPR", "conditions": "100 nM protein; SPR (ReDCaT SA chip, Biacore 8K): 10 mM HEPES, 150 mM NaCl, 3 mM EDTA, 0.05% Tween 20, pH 7.4, 20 C; RsmQ 100 and 1000 nM (Fig 4: 100-1000 nM); recombinant protein; protein details: His tag (pET28a NdeI/XhoI); folded or branched DNA"}, "[5]": {"conditions": "100 nM protein, recombinant protein, folded or branched DNA"}, "[6]": {"conditions": "100 nM protein, slight preference"}}, "note": "For at least one entry, the source does not settle the construct or the ends of the probe. For some assays here: A weaker result is weaker than the reference pair of the same experiment. For some assays here: At least one verdict was read from the data and is not stated in words by the source. For some assays here: Protein sequences can lack the tags named with them.", "data": [{"sequence": "CCGCGCACGGTAGCGCAAACCCTACCCTACGTCCTCCTGC [FullBind_ACGGT_HP]", "values": [{"measurement": "binding result", "setting": "[1]; 100 nM protein", "result": "binds more weakly"}]}, {"sequence": "CCGCGCACGTAAGCGCAAAC [FullBind_ACGTA_HP]", "values": [{"measurement": "binding signal", "setting": "[2]", "result": -6.43, "unit": "%Rmax"}, {"measurement": "binding signal", "setting": "[3]; [5]", "result": -0.342, "unit": "%Rmax"}]}, {"sequence": "CCGCGCACGTAAGCGCAAACCCTACCCTACGTCCTCCTGC [FullBind_ACGTA_HP]", "values": [{"measurement": "binding result", "setting": "[1]; 100 nM protein", "result": "binds more weakly"}]}, {"sequence": "CCGCGCACTGAAGCGCAAAC [FullBind_ACTGA_HP]", "values": [{"measurement": "binding signal", "setting": "[2]", "result": -6.32, "unit": "%Rmax"}]}, {"sequence": "CCGCGCACTGAAGCGCAAACCCTACCCTACGTCCTCCTGC [FullBind_ACTGA_HP]", "values": [{"measurement": "binding result", "setting": "[1]; 100 nM protein", "result": "binds more weakly"}]}, {"sequence": "CCGCGCAGCAAGCGCAAAC [Bind_GCA_HP]", "values": [{"measurement": "binding signal", "setting": "[2]", "result": -6.58, "unit": "%Rmax"}, {"measurement": "binding signal", "setting": "[3]; [5]", "result": -1.27, "unit": "%Rmax"}]}, {"sequence": "CCGCGCAGCAAGCGCAAACCCTACCCTACGTCCTCCTGC [Bind_GCA_HP]", "values": [{"measurement": "binding result", "setting": "[1]; 100 nM protein", "result": "binds more weakly"}]}, {"sequence": "CCGCGCAGGAAGCGCAAAC [Bind_HP (GGA hairpin)]", "values": [{"measurement": "binding signal", "setting": "[2]", "result": -6.07, "unit": "%Rmax"}]}, {"sequence": "CCGCGCAGGCAGCGCAAAC [Bind_GGC_HP]", "values": [{"measurement": "binding signal", "setting": "[2]", "result": -5.39, "unit": "%Rmax"}, {"measurement": "binding signal", "setting": "[3]; [5]", "result": -0.383, "unit": "%Rmax"}]}, {"sequence": "CCGCGCAGGCAGCGCAAACCCTACCCTACGTCCTCCTGC [Bind_GGC_HP]", "values": [{"measurement": "binding result", "setting": "[1]; 100 nM protein", "result": "binds more weakly"}]}, {"sequence": "CCGCGCAGGGAAGCGCAAACCCTACCCTACGTCCTCCTGC [FullBind_AGGGA_HP]", "values": [{"measurement": "binding result", "setting": "[4]", "result": "binds"}, {"measurement": "binding result", "setting": "[1]; [6]", "result": "binds"}]}, {"sequence": "CCGCGCAGGTAGCGCAAAC [Bind_GGT_HP]", "values": [{"measurement": "binding signal", "setting": "[2]", "result": -5.79, "unit": "%Rmax"}, {"measurement": "binding signal", "setting": "[3]; [5]", "result": 1.16, "unit": "%Rmax"}]}, {"sequence": "CCGCGCAGGTAGCGCAAACCCTACCCTACGTCCTCCTGC [Bind_GGT_HP]", "values": [{"measurement": "binding result", "setting": "[1]; 100 nM protein", "result": "binds more weakly"}]}, {"sequence": "CCGCGCAGTAAGCGCAAAC [Bind_GTA_HP]", "values": [{"measurement": "binding signal", "setting": "[2]", "result": -5.98, "unit": "%Rmax"}, {"measurement": "binding signal", "setting": "[3]; [5]", "result": 0.124, "unit": "%Rmax"}]}, {"sequence": "CCGCGCAGTAAGCGCAAACCCTACCCTACGTCCTCCTGC [Bind_GTA_HP]", "values": [{"measurement": "binding result", "setting": "[1]; 100 nM protein", "result": "binds more weakly"}]}, {"sequence": "CCGCGCATGAAGCGCAAAC [Bind_TGA_HP]", "values": [{"measurement": "binding signal", "setting": "[2]", "result": -5.85, "unit": "%Rmax"}, {"measurement": "binding signal", "setting": "[3]; [5]", "result": 0.288, "unit": "%Rmax"}]}, {"sequence": "CCGCGCATGAAGCGCAAACCCTACCCTACGTCCTCCTGC [Bind_TGA_HP]", "values": [{"measurement": "binding result", "setting": "[1]; 100 nM protein", "result": "binds more weakly"}]}, {"sequence": "CCGCGCATGGAAGCGCAAACCCTACCCTACGTCCTCCTGC [FullBind_ATGGA_HP]", "values": [{"measurement": "binding result", "setting": "[4]", "result": "binds"}, {"measurement": "binding result", "setting": "[1]; [6]", "result": "binds"}]}, {"sequence": "CCGCGCCCGGAAGCGCAAAC [FullBind_CCGGA_HP]", "values": [{"measurement": "binding signal", "setting": "[2]", "result": -6.75, "unit": "%Rmax"}]}, {"sequence": "CCGCGCCGGAAGCGCAGGAAC [2Bind_HP (2 x GGA hairpin)]", "values": [{"measurement": "binding signal", "setting": "[2]; letters put together from the description", "result": -7.05, "unit": "%Rmax"}]}, {"sequence": "CCGCGCTCGGAAGCGCAAAC [FullBind_TCGGA_HP]", "values": [{"measurement": "binding signal", "setting": "[2]", "result": -6.25, "unit": "%Rmax"}]}, {"sequence": "CTTACTTTGGAACTCTCTAAGATCA [RsmZ 1-25]", "values": [{"measurement": "binding signal", "setting": "[3]; recombinant …, single-stranded DNA, letters put together from the description", "result": 0.404, "unit": "%Rmax"}]}, {"sequence": "GCCCTGTGTCCACGGATTGGCACAACCTACCCTACGTCCTCCTGC [RsmZ 26-50]", "values": [{"measurement": "binding result", "setting": "[1]", "result": "binds"}]}, {"sequence": "GGGAAAAAATGTGGGCGGGTCATACCGCCCCTTTTTTT [RsmZ 127-end]", "values": [{"measurement": "binding signal", "setting": "[3]; recombinant …, single-stranded DNA", "result": 0.954, "unit": "%Rmax"}]}]}
